Results reported in PubChem BioAssay AID1347076 (National Center for Advancing Translational Sciences (NCATS), 2019).
Hit rate of the full screen: of about 400,000 compounds, about 13,000 (3.2%) were called active. The inconclusive results got no clear call from the source; some entries with a clear call stand among them for comparison. Calls come from the whole dose curve; as a rule, active = well fitted cell-killing curve with a large enough effect; inconclusive = small, poorly fitted or top-dose-only effect, or effect the other way; inactive = flat fitted curve, though single readings scatter. Potencies of inconclusive entries are doubtful fits and often do not repeat. Some compounds were tested as several samples or in several runs, with calls that do not always agree.

Test: qHTS assay for MDR1-selective chemotherapeutics: Primary screen using the drug-selected MDR subline cells KB-V1; note: nearly all actives have a fitted effect of over 60% in size
Details: KB-V1 MDR cells viability, CellTiter-Glo, 72 h; activity change, negative = cytotoxicity: at 46.1 µM (top of the series)
Outline: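 Compound-treated KB-V1 multidrug-resistant cells, 72 h, 37 degrees C; viability by CellTiter-Glo. Fitted qHTS curves give the values.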
% is set by controls: 0 for no effect and ±100 for the full control effect; potency is the fitted concentration of half-maximal effect.

Structure (SMILES) | Potency | activity change, negative = cytotoxicity
CC(=O)c1sc(NC(=O)COc2ccc(C(C)C)c(C)c2)nc1C | inconclusive: 18.4 µM [cytotoxic, single point] | 
Cc1ccc(Cl)cc1-n1ncc2c(NCCC3=CCCCC3)ncnc21 |  | inconclusive: -19.2%
Cc1ccc(SCc2cc(=O)[nH]c(Nc3nc(C)c4cccc(C)c4n3)n2)cc1 | active: 20.6 µM | 
Cn1nnnc1SCC(=O)Nc1ccc(Cl)c(S(=O)(=O)N2CCOCC2)c1 | inactive | 
CC(=O)N1CCC(N(CCN2CCOCC2)C(=S)Nc2cccc(C)c2)CC1 | inconclusive: 18.4 µM [cytotoxic, partial curve] | 
Cc1ccc(C(=O)NCCCN2CCOCC2)c(C)c1 | inconclusive: 29.1 µM [rising, single point] | 
Cc1cccc(Cl)c1NC(=O)N1CCCN(c2nc3ccc(Cl)cc3s2)CC1 | inconclusive: 5.17 µM [cytotoxic, full curve] | 
S=C(c1ccc(-c2cc(Cl)ccc2Cl)o1)N1CCCCC1 | inconclusive: 16.4 µM [cytotoxic, single point] | 
COc1ccc(N=C2SCC(c3ccc([N+](=O)[O-])cc3)=NN2CCO)cc1 | inconclusive: 29.1 µM [cytotoxic, single point] | 
Cc1ccc(S(=O)(=O)N2CCN(C(=O)c3cccs3)CC2)cc1C | inconclusive: 16.4 µM [cytotoxic, single point] | 
CCCCc1nc2ccccc2c(=O)n1NC(=O)c1c(O)c2cccc3c2n(c1=O)CC3 | inconclusive: 1.84 µM [cytotoxic, full curve, poor fit] | 
N#CC1=C(N)C(C#N)(C#N)C(c2ccncc2)C2CN(C(=O)OCc3ccccc3)CC=C12 (centres undefined) | inconclusive: 1.84 µM [cytotoxic, partial curve, poor fit] | 
Cc1ccc(NC(=O)c2ccc3c(c2)NC(=O)c2ccccc2S3)cc1 | active: 9.2 µM | 
O=c1c(C(c2ccccc2)c2c(O)nc3n(c2=O)CCS3)c(O)nc2n1CCS2 | inconclusive: 0.0082 µM [rising, full curve] | 
Cc1cccc(Nc2nc(N)nc(CCl)n2)c1C | inconclusive: 29.1 µM [cytotoxic, single point] | 
Cc1ccc(NC(=O)N2CCC(C(=O)NCc3ccccc3)CC2)cc1 | inconclusive: 16.4 µM [cytotoxic, partial curve] | 
O=C(Nc1ccon1)c1ccc(N2CCCCC2)c([N+](=O)[O-])c1 | inactive | 
COc1ccc(CC(=O)N2CCC(Nc3nc4ccccc4n3Cc3ccc(F)cc3)CC2)cc1 | inconclusive: 15.8 µM [cytotoxic, single point] | 
C=C(C)Cn1c(SCC(=O)N/N=C/c2cccc(O)c2)nc2ccccc2c1=O | inconclusive: 29.1 µM [cytotoxic, single point] | 
O=c1[nH]c2cc3c(cc2cc1C(c1nnnn1Cc1ccccc1)N1CCCCCC1)OCCO3 (centres undefined) | inconclusive: 18.4 µM [cytotoxic, partial curve] | 
COc1ccc(NC(=S)Nc2ccc(C)c(Cl)c2)cc1OC | inactive | 
CCn1cc(/C=C(\NC(=O)c2ccccc2F)C(=O)N2CCOCC2)c2ccccc21 | inactive | 
O=C(Cn1c(COc2ccccc2)nc2ccccc21)Nc1cc(Cl)ccc1Cl | active: 23.1 µM | 

Structure (SMILES) | Potency | activity change, negative = cytotoxicity
COc1ccc(/C=C/C(=O)Nc2ccc(Cl)cc2Cl)cc1 | inactive | 
CC1=CC=CN2C1=NC(=O)CC2(C)C(=O)N(CC(=O)NC1CCCC1)c1cc(C)cc(C)c1 (centres undefined) | inconclusive: 20.6 µM [rising, single point] | 
C=CCS(=O)(=O)N1CCCC(C(=O)c2cccc(Cl)c2)C1 (centres undefined) | inconclusive: 23.1 µM [cytotoxic, partial curve] | 
Cc1c(C(=O)N2CCOCC2)oc2ccccc12 | inactive | 
N#Cc1c(-c2cccc(Cl)c2)[nH]c(=S)[nH]c1=O | inconclusive: 18.4 µM [rising, partial curve] | 
Cc1cc(O)c(C(=O)/C=C/c2ccccc2Br)c(=O)o1 | inconclusive: 23.1 µM [cytotoxic, single point] | 
COc1ccc(C2c3c(ncn(CCN4CCOCC4)c3=N)Oc3ccc4ccccc4c32)cc1 (centres undefined) | active: 14.6 µM | 
CCOc1ccc(CN(C)C(=O)c2cc(S(=O)(=O)N3CCCC3)ccc2C)cc1 | inconclusive: 8.2 µM [cytotoxic, partial curve] | 
CCOc1cc(C2CC(=O)Nc3c2c(=O)nc(SCc2cccc(Cl)c2)n3C)ccc1O (centres undefined) | inconclusive: 29.1 µM [rising, single point] | 
CCOC(=O)c1[nH]c(C)c(C(=O)OCc2ccccc2F)c1C | active: 2.31 µM | 
O=C(Nc1cccc(Cl)c1)c1cc(S(=O)(=O)N2CCCc3ccccc32)ccc1F | inconclusive: 20.6 µM [cytotoxic, partial curve] | 
CCSc1nc2c(c(=O)[nH]1)C(C(C)C)C(C#N)=C(N)O2 (centres undefined) | inconclusive: 29.1 µM [rising, single point] | 
CC(C)(C)c1nc(SCC(=O)NCc2ccco2)c2ccccc2n1 | inconclusive: 14.6 µM [cytotoxic, partial curve] | 
O=C(COC(=O)CNC(=O)c1ccc([N+](=O)[O-])o1)Nc1ncc(C(F)(F)F)cc1Cl |  | inconclusive: 39.1%
COc1ccc(CCNC(=O)CCCOc2cccc(C)c2C)cc1OC | inconclusive: 10.3 µM [cytotoxic, partial curve] | 
O=C1NC(=S)N/C1=C/c1ccc2ccccc2c1 | inconclusive: 14.6 µM [rising, partial curve, poor fit] | 
O=C(NCC1CCCO1)c1cc(-c2ccccc2)on1 (centres undefined) | active: 20.6 µM | 
CCOc1ccccc1OCCC(=O)Nc1ccc2c(c1)OCO2 | inconclusive: 29.1 µM [cytotoxic, single point] | 
NS(=O)(=O)c1ccc(N2CCOCC2)c(C(=O)NCCCSc2ccccc2)c1 | inconclusive: 29.1 µM [rising, single point] | 
CCOc1ccc(Nc2cc(C)nc3ccc(C)cc23)cc1 | inconclusive: 14.6 µM [cytotoxic, partial curve, poor fit] | 
Cc1c(C(=O)NC(Cc2ccccc2)c2nc3ccccc3[nH]2)cccc1[N+](=O)[O-] (centres undefined) | inconclusive: 29.1 µM [cytotoxic, single point] | 
CCC(C)NC(=O)CSc1nnc(-c2ccc(C)cc2)c(-c2ccc(C)cc2)n1 (centres undefined) | inactive | 
COC(=O)C(CCSC)NS(=O)(=O)c1ccc(Cl)cc1 (centres undefined) | inconclusive: 29.1 µM [rising, single point] | 

Structure (SMILES) | Potency | activity change, negative = cytotoxicity
COc1cccc(OC)c1C(=O)Nc1cccc(NC(=O)c2cccs2)c1 | inactive | 
O=C(CN1CCCCC1)N/N=C/c1cccc(C(F)(F)F)c1 | inactive | 
CCC(=O)N1CCN=C1SCc1cccc(C(F)(F)F)c1 | inconclusive: 18.4 µM [rising, single point] | 
O=C(NCCCO)C(=O)Nc1c2c(nn1-c1ccccc1)CSC2 | inconclusive: 14.6 µM [rising, partial curve] | 
NC(=O)c1cc(C(=O)c2ccc(Cl)cc2Cl)c[nH]1 | inconclusive: 18.4 µM [cytotoxic, single point] | 
Fc1ccc(C2=NNC(=NCc3ccccc3)SC2)cc1F | inconclusive: 29.1 µM [cytotoxic, single point] | 
Cc1csc(NC(=O)C2CCN(S(=O)(=O)c3ccccc3F)CC2)n1 | active: 14.6 µM | 
COc1ccccc1N1CCN(CC(O)COCCOc2ccc(Br)cc2)CC1 (centres undefined) | inconclusive: 9.2 µM [cytotoxic, partial curve] | 
CCOc1ccccc1NC(=O)CSc1nnc(CCC(=O)Nc2ccccc2F)n1C | inactive | 
COc1cc([C@@H]2c3cc4c(cc3[C@@H](O)[C@H]3COC(=O)[C@H]23)OCO4)cc(OC)c1O[Si](C)(C)C(C)(C)C | inconclusive: 29.1 µM [cytotoxic, single point] | 
Cc1ccc(C(=O)NCc2ccc(N3CCN(C(=O)OC(C)(C)C)CC3)cc2)cc1 | active: 3.66 µM | 
CCOc1cc(N2CCOCC2)c(OCC)cc1NC(=O)c1cc(C)nc2ccccc12 | inconclusive: 2.06 µM [cytotoxic, partial curve] | 
Cc1cn2c(=O)cc(COC(=O)c3ccccc3F)nc2s1 | inactive | 
COC(=O)N/N=C\c1c(C)[nH]n(-c2ccccc2)c1=O | inactive | 
Cc1noc(C)c1COc1ccc(C(=O)Nc2ncccc2O)cc1 | inconclusive: 20.6 µM [cytotoxic, single point] | 
CC(=O)c1ccc(NS(=O)(=O)c2ccc3c(c2)CCC(=O)N3)cc1 | inconclusive: 29.1 µM [rising, single point] | 
Clc1cc(CSc2ccccc2)nc(-c2ccccc2)n1 |  | inconclusive: -39.6%
COc1cc(-c2nnc(-c3cccs3)o2)cc(OC)c1OC | inconclusive: 4.11 µM [cytotoxic, full curve, poor fit] | 
CC(C)Cn1c(C(C)C)nc([N+](=O)[O-])c1Sc1ccc(Cl)cn1 | inconclusive: 29.1 µM [cytotoxic, single point] | 
O=C(CN1C(=O)C2(SCC(=O)N2c2ccccc2)c2ccccc21)NCCc1ccccc1 (centres undefined) | inconclusive: 10.3 µM [cytotoxic, partial curve] | 
Cc1oc(-c2ccc(Cl)cc2)nc1CN1CCCC(C(=O)NCCCN2CCOCC2)C1 (centres undefined) | active: 18.4 µM | 
Cc1ccc(C(=O)Nc2ccccc2C(=O)OCc2cc(=O)n3nc(C4CC4)sc3n2)cc1 | inconclusive: 23.1 µM [rising, single point] | 
Fc1ccccc1N1CCN(Cc2nc(-c3ccccc3)no2)CC1 | inconclusive: 20.6 µM [cytotoxic, single point] | 

An excerpt of these results, with each value named.
C=CCS(=O)(=O)N1CCCC(C(=O)c2cccc(Cl)c2)C1 (centres undefined)
  Potency: inconclusive: 23.1 µM [cytotoxic, partial curve]
CCSc1nc2c(c(=O)[nH]1)C(C(C)C)C(C#N)=C(N)O2 (centres undefined)
  Potency: inconclusive: 29.1 µM [rising, single point]
NS(=O)(=O)c1ccc(N2CCOCC2)c(C(=O)NCCCSc2ccccc2)c1
  Potency: inconclusive: 29.1 µM [rising, single point]
